Results as given in the supplement of paper PMC10849652.
The other results are listed elsewhere or left out.

The chains behind the UniProt entries cited, without tags or fusion partners. Where a name states a change or a piece, a line headed by the entry shows the natural chain unless it says otherwise.
UniProt Q9H8W4: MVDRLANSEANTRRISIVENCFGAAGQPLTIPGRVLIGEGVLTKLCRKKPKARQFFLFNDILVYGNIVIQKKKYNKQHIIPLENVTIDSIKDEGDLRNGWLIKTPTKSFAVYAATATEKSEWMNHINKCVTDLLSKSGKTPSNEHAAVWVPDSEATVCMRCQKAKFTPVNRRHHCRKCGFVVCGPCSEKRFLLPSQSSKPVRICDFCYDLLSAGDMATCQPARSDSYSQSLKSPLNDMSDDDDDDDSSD
UniProt Q9Y2S7: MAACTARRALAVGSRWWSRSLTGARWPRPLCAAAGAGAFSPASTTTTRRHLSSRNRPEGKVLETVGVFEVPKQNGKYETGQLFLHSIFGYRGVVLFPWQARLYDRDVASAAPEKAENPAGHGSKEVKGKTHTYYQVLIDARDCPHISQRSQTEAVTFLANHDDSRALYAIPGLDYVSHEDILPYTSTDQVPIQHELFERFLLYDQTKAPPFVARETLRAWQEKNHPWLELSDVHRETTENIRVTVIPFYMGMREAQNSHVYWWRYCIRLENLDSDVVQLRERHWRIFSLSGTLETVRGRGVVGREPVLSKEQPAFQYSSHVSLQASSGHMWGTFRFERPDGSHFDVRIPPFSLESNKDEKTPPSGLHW
UniProt Q8WUA2: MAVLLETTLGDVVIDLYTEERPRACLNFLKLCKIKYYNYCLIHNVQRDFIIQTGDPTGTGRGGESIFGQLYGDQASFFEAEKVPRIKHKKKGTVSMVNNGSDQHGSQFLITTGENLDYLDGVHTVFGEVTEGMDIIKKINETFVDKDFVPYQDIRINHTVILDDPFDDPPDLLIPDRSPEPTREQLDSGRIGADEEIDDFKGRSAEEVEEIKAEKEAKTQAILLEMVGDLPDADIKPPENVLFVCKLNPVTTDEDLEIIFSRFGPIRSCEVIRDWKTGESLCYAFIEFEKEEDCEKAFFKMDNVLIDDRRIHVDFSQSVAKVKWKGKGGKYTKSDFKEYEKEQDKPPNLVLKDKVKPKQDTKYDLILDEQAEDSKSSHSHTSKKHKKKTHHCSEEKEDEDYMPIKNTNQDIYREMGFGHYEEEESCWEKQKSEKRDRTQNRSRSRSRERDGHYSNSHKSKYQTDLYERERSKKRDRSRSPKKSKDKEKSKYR
UniProt A5A3E0, whole entry, looked up: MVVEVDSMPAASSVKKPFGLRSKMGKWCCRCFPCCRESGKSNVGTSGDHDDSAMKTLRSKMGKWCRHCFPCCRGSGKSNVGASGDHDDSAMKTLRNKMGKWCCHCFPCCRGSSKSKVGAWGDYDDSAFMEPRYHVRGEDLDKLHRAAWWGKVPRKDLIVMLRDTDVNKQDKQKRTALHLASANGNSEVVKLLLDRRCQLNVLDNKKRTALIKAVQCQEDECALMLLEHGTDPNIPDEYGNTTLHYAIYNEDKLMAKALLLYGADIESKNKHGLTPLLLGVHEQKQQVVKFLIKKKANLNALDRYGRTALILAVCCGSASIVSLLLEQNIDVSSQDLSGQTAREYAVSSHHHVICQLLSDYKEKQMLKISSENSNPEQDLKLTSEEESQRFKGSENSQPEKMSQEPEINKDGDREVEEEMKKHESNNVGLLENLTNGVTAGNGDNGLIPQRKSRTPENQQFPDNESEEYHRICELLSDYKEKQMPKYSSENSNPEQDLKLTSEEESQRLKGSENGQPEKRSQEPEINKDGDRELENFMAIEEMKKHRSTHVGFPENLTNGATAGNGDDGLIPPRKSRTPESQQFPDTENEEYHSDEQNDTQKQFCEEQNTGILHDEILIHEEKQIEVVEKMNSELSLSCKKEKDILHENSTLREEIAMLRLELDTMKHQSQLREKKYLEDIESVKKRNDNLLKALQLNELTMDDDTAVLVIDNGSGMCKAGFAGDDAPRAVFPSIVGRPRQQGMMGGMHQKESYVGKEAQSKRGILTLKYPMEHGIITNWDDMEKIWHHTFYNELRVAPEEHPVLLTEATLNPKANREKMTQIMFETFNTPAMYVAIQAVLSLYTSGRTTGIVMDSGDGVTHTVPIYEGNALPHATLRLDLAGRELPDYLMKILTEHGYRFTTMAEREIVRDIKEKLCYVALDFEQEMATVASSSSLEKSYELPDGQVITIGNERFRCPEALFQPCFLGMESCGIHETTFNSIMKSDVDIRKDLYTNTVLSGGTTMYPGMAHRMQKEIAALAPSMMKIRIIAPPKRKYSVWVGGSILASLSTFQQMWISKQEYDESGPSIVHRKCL
UniProt Q9Y2Y1: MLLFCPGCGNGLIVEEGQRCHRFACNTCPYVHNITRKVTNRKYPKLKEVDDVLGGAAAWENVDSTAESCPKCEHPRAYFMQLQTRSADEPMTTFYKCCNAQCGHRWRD
UniProt P28340: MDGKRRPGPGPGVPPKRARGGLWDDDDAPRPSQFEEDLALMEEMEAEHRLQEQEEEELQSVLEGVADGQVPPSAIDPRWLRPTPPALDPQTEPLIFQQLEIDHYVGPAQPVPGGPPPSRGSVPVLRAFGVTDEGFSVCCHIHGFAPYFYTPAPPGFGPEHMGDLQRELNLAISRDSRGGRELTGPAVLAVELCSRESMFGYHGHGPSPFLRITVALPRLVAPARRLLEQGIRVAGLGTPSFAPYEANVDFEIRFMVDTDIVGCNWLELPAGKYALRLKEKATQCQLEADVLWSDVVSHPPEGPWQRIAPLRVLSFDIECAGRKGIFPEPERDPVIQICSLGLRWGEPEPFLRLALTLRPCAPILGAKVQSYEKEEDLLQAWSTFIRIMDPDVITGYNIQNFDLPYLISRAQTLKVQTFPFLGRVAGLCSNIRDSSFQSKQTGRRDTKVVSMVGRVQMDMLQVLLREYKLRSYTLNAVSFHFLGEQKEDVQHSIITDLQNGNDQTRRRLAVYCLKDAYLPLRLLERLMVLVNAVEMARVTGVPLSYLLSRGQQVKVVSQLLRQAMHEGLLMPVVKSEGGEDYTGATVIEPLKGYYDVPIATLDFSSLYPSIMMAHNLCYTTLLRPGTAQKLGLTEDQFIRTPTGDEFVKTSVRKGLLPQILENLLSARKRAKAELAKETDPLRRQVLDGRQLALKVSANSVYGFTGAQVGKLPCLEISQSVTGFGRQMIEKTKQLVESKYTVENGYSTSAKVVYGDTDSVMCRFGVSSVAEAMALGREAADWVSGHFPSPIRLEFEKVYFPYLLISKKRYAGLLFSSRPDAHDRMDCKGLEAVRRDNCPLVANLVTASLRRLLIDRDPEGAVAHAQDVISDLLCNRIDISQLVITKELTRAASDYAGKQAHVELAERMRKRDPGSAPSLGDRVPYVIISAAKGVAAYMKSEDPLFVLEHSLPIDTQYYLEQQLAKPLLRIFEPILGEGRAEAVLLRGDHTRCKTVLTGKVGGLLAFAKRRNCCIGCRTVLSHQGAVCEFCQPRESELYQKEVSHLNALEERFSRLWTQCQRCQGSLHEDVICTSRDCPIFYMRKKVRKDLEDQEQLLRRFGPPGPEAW
UniProt Q07864, whole entry, looked up: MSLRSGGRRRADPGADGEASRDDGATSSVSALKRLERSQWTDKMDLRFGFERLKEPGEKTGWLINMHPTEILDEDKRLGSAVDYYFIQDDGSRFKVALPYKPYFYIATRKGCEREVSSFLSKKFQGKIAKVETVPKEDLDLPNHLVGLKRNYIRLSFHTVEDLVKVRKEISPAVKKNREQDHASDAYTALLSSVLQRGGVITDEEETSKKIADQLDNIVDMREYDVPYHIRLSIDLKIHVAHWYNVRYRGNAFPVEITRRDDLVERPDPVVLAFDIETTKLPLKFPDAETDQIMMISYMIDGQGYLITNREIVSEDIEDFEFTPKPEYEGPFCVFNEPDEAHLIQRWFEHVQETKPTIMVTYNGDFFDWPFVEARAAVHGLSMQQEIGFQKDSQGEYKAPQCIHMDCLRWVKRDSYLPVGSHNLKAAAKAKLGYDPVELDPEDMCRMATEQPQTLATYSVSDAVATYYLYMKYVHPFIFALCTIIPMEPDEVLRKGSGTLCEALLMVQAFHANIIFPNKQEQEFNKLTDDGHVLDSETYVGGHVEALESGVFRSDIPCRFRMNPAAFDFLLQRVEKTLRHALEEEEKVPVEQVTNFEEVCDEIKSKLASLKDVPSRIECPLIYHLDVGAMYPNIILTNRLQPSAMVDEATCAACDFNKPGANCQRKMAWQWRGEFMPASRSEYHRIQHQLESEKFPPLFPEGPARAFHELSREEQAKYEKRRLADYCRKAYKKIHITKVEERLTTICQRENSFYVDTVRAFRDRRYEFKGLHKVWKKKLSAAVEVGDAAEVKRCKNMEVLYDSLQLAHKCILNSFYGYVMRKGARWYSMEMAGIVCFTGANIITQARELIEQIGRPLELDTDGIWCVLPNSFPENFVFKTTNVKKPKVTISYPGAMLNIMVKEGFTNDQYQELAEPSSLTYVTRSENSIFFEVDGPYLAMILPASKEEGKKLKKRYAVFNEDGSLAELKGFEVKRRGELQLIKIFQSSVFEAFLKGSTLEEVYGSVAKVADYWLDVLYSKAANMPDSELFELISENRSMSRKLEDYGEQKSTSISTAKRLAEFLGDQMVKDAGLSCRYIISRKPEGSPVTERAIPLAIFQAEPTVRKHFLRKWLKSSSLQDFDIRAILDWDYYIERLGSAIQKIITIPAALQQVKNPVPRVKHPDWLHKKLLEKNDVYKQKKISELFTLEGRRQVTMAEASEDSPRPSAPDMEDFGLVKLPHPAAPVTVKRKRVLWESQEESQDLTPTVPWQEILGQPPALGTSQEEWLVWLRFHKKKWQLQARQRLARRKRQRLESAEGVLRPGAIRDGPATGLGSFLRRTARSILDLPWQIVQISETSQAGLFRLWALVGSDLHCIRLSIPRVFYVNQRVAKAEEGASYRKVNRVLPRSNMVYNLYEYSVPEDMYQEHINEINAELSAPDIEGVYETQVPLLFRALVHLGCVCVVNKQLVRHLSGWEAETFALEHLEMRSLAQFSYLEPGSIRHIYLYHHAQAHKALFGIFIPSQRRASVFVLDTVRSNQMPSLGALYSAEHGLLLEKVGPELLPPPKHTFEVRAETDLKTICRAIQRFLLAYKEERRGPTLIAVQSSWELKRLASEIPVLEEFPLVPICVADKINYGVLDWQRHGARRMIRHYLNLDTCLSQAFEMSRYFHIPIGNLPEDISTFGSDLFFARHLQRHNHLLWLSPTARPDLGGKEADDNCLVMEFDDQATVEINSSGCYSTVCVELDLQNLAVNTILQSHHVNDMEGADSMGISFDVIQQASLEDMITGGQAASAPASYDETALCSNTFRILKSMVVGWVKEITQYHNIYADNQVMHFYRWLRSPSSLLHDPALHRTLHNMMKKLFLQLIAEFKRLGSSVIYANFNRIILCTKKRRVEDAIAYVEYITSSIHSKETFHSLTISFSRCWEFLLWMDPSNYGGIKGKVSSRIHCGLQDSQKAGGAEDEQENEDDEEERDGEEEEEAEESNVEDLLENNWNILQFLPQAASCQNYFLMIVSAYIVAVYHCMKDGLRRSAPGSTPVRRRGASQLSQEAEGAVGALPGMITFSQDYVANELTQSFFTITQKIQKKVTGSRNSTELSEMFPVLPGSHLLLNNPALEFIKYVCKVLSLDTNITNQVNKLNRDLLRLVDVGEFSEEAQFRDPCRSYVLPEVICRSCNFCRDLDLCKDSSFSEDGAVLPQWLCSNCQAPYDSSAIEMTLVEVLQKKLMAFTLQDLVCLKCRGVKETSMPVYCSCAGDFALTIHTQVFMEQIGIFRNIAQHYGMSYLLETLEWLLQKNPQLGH
UniProt Q9H307: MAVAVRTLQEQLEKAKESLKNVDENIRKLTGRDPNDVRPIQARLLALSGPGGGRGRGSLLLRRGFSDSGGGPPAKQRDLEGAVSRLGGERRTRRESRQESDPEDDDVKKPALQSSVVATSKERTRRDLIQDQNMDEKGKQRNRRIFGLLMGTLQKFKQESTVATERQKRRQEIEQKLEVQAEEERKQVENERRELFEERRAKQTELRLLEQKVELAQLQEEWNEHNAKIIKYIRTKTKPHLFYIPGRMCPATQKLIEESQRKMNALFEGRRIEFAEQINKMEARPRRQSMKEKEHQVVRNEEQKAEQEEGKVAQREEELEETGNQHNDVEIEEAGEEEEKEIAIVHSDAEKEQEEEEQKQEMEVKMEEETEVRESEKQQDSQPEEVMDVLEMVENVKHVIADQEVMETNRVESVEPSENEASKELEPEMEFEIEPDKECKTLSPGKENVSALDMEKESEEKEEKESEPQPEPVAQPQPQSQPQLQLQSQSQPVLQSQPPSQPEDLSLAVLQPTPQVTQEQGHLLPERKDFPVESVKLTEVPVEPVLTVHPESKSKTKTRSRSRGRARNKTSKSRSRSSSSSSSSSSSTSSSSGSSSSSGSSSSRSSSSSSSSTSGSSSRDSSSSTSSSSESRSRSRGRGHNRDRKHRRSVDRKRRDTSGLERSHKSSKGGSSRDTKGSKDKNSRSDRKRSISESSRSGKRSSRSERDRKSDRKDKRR
UniProt Q9H2H8: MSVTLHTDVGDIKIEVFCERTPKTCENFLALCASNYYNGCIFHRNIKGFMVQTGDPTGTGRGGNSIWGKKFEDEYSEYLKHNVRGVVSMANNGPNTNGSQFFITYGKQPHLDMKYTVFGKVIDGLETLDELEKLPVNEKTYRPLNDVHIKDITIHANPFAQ

Assays:
Assay in all cases: log2 fold change, soluble protein after heating vs DMSO (PISA); higher = thermal stabilisation; K562 cells, 10 uM, 30 min; active = over 0.2 and 3.5 SD of the protein, either way, in both replicates (recomputed)
[1] = compound: C1=CC=C(C=C1)[C@H](COC2=CC3=C(C=C2)NC(=O)N3)NC(=O)C4=CC=CN(C4=O)CC5=CC(=C(C=C5)F)F
How it was run: (§1)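 K562 cells at 2×10^6 cells/mL were exposed to 10 μM compound for 30 min, then aliquots were heated for 3 min across 48°C-58°C, pooled, and extracted in PBS containing 0.5% NP-40 at 4°C. The supernatant after 21,000xg for 90 min was taken as soluble protein and measured by TMTpro 16plex LC-MS/MS with channel sums equalised. Thermal stability is reported relative to control samples, with values from duplicates. Fold changes are given on a log2 scale.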

[2] = compound: CC1=C(SC2=C1C(=N[C@H](C3=NN=C(N32)C)CC(=O)N)C4=CC=C(C=C4)Cl)C
How it was run: as §1

[3] = compound: CC1=C2C(=CC=C1)N=C(N(C2=O)C3=CC=CC=C3C)CN4C=NC5=C(N=CN=C54)N
How it was run: as §1

[4] = compound: Cc1sc2c(c1C)C(c1ccc(Cl)cc1)=N[C@@H](CC(=O)OC(C)(C)C)c1nnc(C)n1-2
How it was run: as §1

[5] = compound: c1ccc([C@@H]2C[C@H]2NC2CCNCC2)cc1
How it was run: as §1

Measured: log2 fold change

POLD2 (UniProt P49005)
inactive: [1] -0.028 | [2] 0.049 | [3] 0.082 | [4] -0.012 | [5] 0.009

PLEKHF2 (UniProt Q9H8W4)
inactive: [1] -0.093 | [2] 0.044 | [3] 0.217 | [4] -0.057 | [5] -0.019

POLR2K (UniProt P53803)
inactive: [1] 0.053 | [2] 0.06 | [3] 0.046 | [4] 0.032 | [5] -0.056

POLDIP2 (UniProt Q9Y2S7)
inactive: [1] -0.03 | [2] 0.025 | [3] 0.046 | [4] -0.038 | [5] 0.016

PPIL4 (UniProt Q8WUA2)
inactive: [1] 0.012 | [2] -0.022 | [3] 0.036 | [4] 0.039 | [5] 0.016

POLR2B (UniProt P30876)
inactive: [1] -0.028 | [2] 0.105 | [3] 0.047 | [4] 0.159 | [5] -0.053

PON2 (UniProt Q15165)
inactive: [1] 0.029 | [2] -0.073 | [3] 0.02 | [4] -0.01 | [5] 0.041

POTEF (UniProt A5A3E0)
inactive: [1] 0.027 | [2] 0.028 | [3] 0.04 | [4] 0.006 | [5] 0.007

POLR3K (UniProt Q9Y2Y1)
inactive: [1] -0.009 | [2] -0.008 | [3] -0.029 | [4] 0.021 | [5] 0.056

POP1 (UniProt Q99575)
inactive: [1] 0.003 | [2] -0.028 | [3] 0.029 | [4] 0.017 | [5] -0.01

POLD1 (UniProt P28340)
inactive: [1] 0.017 | [2] 0.019 | [3] 0.094 | [4] 0.048 | [5] 0

POLE (UniProt Q07864)
inactive: [1] 0.015 | [2] 0.118 | [5] -0.122

PNN (UniProt Q9H307)
inactive: [1] 0.084 | [2] 0.021 | [5] 0.012

3 successive records already listed, quoted:
POTEF (UniProt A5A3E0)
inactive: [1] 0.027 | [2] 0.028 | [3] 0.04 | [4] 0.006 | [5] 0.007

POLR3K (UniProt Q9Y2Y1)
inactive: [1] -0.009 | [2] -0.008 | [3] -0.029 | [4] 0.021 | [5] 0.056

POP1 (UniProt Q99575)
inactive: [1] 0.003 | [2] -0.028 | [3] 0.029 | [4] 0.017 | [5] -0.01

Following part

PPHLN1 (UniProt Q8NEY8)
inactive: [1] 0.109 | [3] -0.14

PPIL3 isoform 2 (UniProt Q9H2H8)
inactive: [1] 0.078 | [3] -0.074 | [4] -0.002
